Measured values from patent US20050004225A1, “Oxidoreductase inhibitors and methods of screening and using thereof” (priority 2003, published 2005).
“Also recorded” adds a separate entry of the source. At least one compound was matched to its structure with a doubt left.

Tests used:
human aldose reductase = molecular target: T1, human aldose reductase (Homo sapiens, UniProt P15121); assay: Inhibition of recombinant human aldose reductase, DL-glyceraldehyde reduction, NADPH at 340 nm; format: biochemical; conditions: recombinant hAR, Lineweaver-Burk plot
T1 construct: His-tag (cleaved yes); made in house; host or cells: E. coli BL21
Protocol: DL Glyceraldehyde, NADPH, and Bezafibrate (2-[4-[2-(4-chlorobenzamiso)ethyl]phenoxy]-2-methyl-propionic acid) were purchased from Sigma-Aldrich. All other chemicals used were of the highest purity available.
Human aldose reductase was recombinantly expressed in E. coli BL21, purified, and used for testing the efficacy of Bezafibrate in regulating aldehyde reduction reaction. […] Over night grown culture was inoculated (25 ml/l) into four 3 l flasks each containing 11 LB supplemented with ampicillin (50 μg/ml) at 37° C. with shaking (250 rpm) for 3 to 4 h until an attenuance (A600) of ˜0.7. […] The purity of the protein at each stage of purification was assessed by SDS PAGE, and staining the gels with Coomassie Blue.
Activity with various concentrations of DL glyceraldehyde in the absence and, in the presence of various concentrations of Bezafibrate was determined by monitoring the change in NADPH concentration at room temperature 28±2° C. in a Beckman DU600 model spectrophotometer by measuring the absorbance at 340 nm, in 0.01 M sodium phosphate buffer (pH 6.2). […] Values were calculated using Sigmaplot Ver 8.0 (SPSS Inc.) using a non-linear Marquardt's regression algorithm that computes the coefficients (parameters) of the independent variable(s) that give the “best fit” between the equation and the data. […]

[1] = system: B16 melanoma-induced cachexia; conditions: cited from earlier work

SMILES: CC(C)(Oc1ccc(CCNC(=O)c2ccc(Cl)cc2)cc1)C(=O)O [Bezafibrate, 2-[4-[2-(4-chlorobenzamiso)ethyl]phenoxy]-2-methyl-propionic acid]
- inhibition pattern with respect to reduction of glyceraldehyde, forward direction (human aldose reductase): partial noncompetitive inhibition pattern
- inhibition pattern with respect to reduction of glyceraldehyde, forward direction (human aldose reductase; listed as bezafibrate): noncompetitive partial inhibition pattern; also recorded: partial noncompetitive inhibition pattern
- weight of epididymal fat and whole body lipid ([1]; mice after intraperitoneal inoculation of B16): attenuation of the decrease
- B16 melanoma-induced cachexia ([1]; mice): alleviated
- blood levels of triglyceride, non-esterified fatty acid and glucose ([1]; tumor-bearing mice): restored to that of normal mice
